# Laboratory results as given in PubChem BioAssay AID540256 (National Center for Advancing Translational Sciences (NCATS), 2011).
# Out of some 300,000 compounds screened, about 3,700 (1.2%) were called active. The shares of active, inactive and inconclusive entries below differ from those in the screen. Calls come from the whole dose curve; tested in HEK293 cells. A potency beside an inconclusive call is a rough fit, not a confirmed value.
# Test: qHTS for Inhibitors of binding or entry into cells for Lassa Virus; note: nearly all actives have a fitted effect of over 50% in size
# Settings: Lassa virus pseudotype entry inhibition, cell reporter; series mostly up to 37.9 µM
# Potency is the fitted concentration of half-maximal effect.
row,Structure (SMILES),Potency
1,Cc1cc(NC(=O)CCc2nc3cccnc3n2-c2ccccc2)ccc1Br,"inconclusive: 4.47 µM [activator, partial curve, poor fit]"
2,COc1ccc(/C=N/NC(=O)CCCOc2ccc(Cl)cc2Cl)cc1,"inconclusive: 1.84 µM [inhibitor, full curve]"
3,Cc1cccc(-c2nnc(NC(=O)c3ccc(N4C(=O)CCC4=O)cc3)s2)c1,inactive
4,COCCSc1nnc(NC(=O)c2ccco2)s1,inactive
5,Cc1ccc(Cl)cc1-c1ccc(C=Nc2ccc(N3CCOCC3)cc2)o1,"inconclusive: 17.8 µM [inhibitor, partial curve, poor fit]"
6,Cc1cc(C)nc(SCC(=O)N/N=C/c2cccs2)n1,"inconclusive: 0.562 µM [inhibitor, full curve, poor fit]"
7,O=C(NCCc1ccccc1)c1ccc(CS(=O)Cc2ccc(Cl)cc2)o1 (configuration not stated),"inconclusive: 35.5 µM [inhibitor, single point]"
8,N#Cc1nc(-c2ccc([N+](=O)[O-])cc2)oc1N1CCCCC1,"inconclusive: 6.31 µM [activator, full curve, poor fit]"
9,Oc1ccccc1CNCCCN1CCOCC1,inactive
10,COc1ccc(Br)cc1/C=C/C(=O)Nc1c(C)cccc1C,inactive
11,COc1cc2c(cc1NC(=O)C(C)Sc1ccc(NC(C)=O)cc1)oc1ccccc12 (configuration not stated),"inconclusive: 35.5 µM [inhibitor, single point]"
12,COc1ccc(CCN(C)C(=O)COC(=O)/C=C/c2ccc(C)o2)cc1OC,inactive
13,COc1ccc(-c2c(C#N)c(SCC(=O)c3cc4ccccc4oc3=O)nc(C)c2C(=O)Nc2ccccc2)cc1,"inconclusive: 22.4 µM [inhibitor, single point]"
14,CCCn1c(N)c(C(c2ccc(OC)cc2)N2CCN(c3ccccc3)CC2)c(=O)[nH]c1=O (configuration not stated),inactive
15,COc1ccccc1OCc1ccc(C(=O)Nc2ccncc2)o1,"inconclusive: 18.3 µM [inhibitor, single point]"
16,O=C(NC(=S)NCCO)c1cn(-c2ccccc2)nc1-c1ccccc1,inactive
17,O=C(Cn1c(C(=O)NCCCN2CCOCC2)cc2sccc21)c1ccccc1,"inconclusive: 0.73 µM [activator, full curve, poor fit]"
18,COc1cccc(-c2nnc(SCc3ccc(C#N)cc3)n2Cc2ccco2)c1,inactive
19,O=C(CCn1c(=O)c2ccccc2n(CC(=O)Nc2cccc(F)c2)c1=O)NCCc1ccccc1,inactive
20,NC(=O)c1cc(NC(=O)CCCc2nc3ccccc3s2)cc(C(N)=O)c1,inactive
21,CSCCC(NC(=O)c1occc1C)C(=O)O (configuration not stated),"inconclusive: 11.2 µM [activator, partial curve, poor fit]"
22,COc1ccc(C(CC(=O)N2CCCCC2)NC(=O)C(F)(F)F)cc1 (configuration not stated),inactive
23,COc1cc(NC(=O)Cn2nc(C(F)(F)F)c3c2CCC3)cc(OC)c1OC,inactive
24,O=C1c2ccccc2C(=O)N1CCc1csc(-c2ccccc2)n1,inactive

row,Structure (SMILES),Potency
1,O=C(CCCCn1ccc(=O)[nH]c1=O)Nc1ccc(O)c(C(=O)O)c1,inactive
2,CCOc1ccccc1NC(=O)C1CCN(S(=O)(=O)c2c(C)noc2/C=C/c2ccco2)CC1,"inconclusive: 1 µM [inhibitor, full curve, poor fit]"
3,CC1(C)C2C/C(=N\O)C(C)(/[N+]([O-])=C/c3cccc([N+](=O)[O-])c3)CC21 (configuration not stated),"inconclusive: 35.5 µM [inhibitor, partial curve, poor fit]"
4,Clc1nc(-c2ccccc2)cc(-c2ccccc2)n1,inactive
5,O=C(CSc1nnc(-c2cccnc2)n1Cc1ccco1)Nc1cccc(O)c1,inactive
6,Cc1ccc(C#N)c(SCc2nnc(-c3ccc(Cl)cc3)o2)n1,"inconclusive: 0.316 µM [inhibitor, full curve, poor fit]"
7,CC1CN(C(=O)/C=C/c2ccc([N+](=O)[O-])s2)CC(C)O1 (configuration not stated),"inconclusive: 12.6 µM [inhibitor, single point]"
8,CCN(CC)c1ncnc2c1cnn2-c1cc(Cl)ccc1C,"inconclusive: 6.31 µM [inhibitor, partial curve, poor fit]"
9,Cc1c(C(=O)N/N=C/c2ccc(O)c(Br)c2)sc(N)c1C#N,"inconclusive: 7.31 µM [inhibitor, partial curve]"
10,COc1ccc(-c2csc(Nc3ncccc3C)n2)cc1OC,"inconclusive: 12.6 µM [activator, partial curve]"
11,O=C(NCc1cccnc1)/C(=C/c1ccco1)NC(=O)c1ccccc1,inactive
12,Cc1cccc2sc(NC(=O)C3CCN(C(=O)c4ccco4)CC3)nc12,active: 7.94 µM
13,CC(/C=N/NC(=O)CSc1nc(C)cc(C)n1)=C\c1ccccc1,inactive
14,CC1CCCC(C)N1C(=O)c1ccccc1Nc1ccc(SC(F)F)cc1 (configuration not stated),"inconclusive: 29.1 µM [inhibitor, single point]"
15,COc1ccc(CC(=O)Nc2c(C(=O)N3CCN(c4ccccc4)CC3)oc3ccccc23)cc1OC,"inconclusive: 8.91 µM [inhibitor, single point]"
16,COc1ccc(C(C(=O)NCc2ccccc2)N(Cc2cccs2)C(=O)c2cnccn2)cc1 (configuration not stated),"inconclusive: 4.11 µM [inhibitor, full curve]"
17,CN1CCN(c2ccc(NC(=O)c3ccc([N+](=O)[O-])o3)cc2Cl)CC1,"inconclusive: 22.4 µM [inhibitor, partial curve, poor fit]"
18,Clc1ccc2nc(CSc3nnc4ccccn34)cn2c1,"inconclusive: 11.2 µM [inhibitor, partial curve, poor fit]"
19,O=C(CCCCCNc1nc(=S)[nH]c2ccccc12)NCCc1ccccc1,"inconclusive: 35.5 µM [inhibitor, single point]"
20,COC(=O)c1ccc(CNC(=O)c2ccc(COc3ccccc3)cc2)cc1,inactive
21,CCN(Cc1cc2ccccc2[nH]c1=O)S(=O)(=O)c1ccccc1,"inconclusive: 0.231 µM [inhibitor, single point]"
22,COc1ccc(C(C)(C)C)cc1S(=O)(=O)N1CCC(C(N)=O)CC1,inactive
23,CC(=O)c1c(C)[nH]c(C(=O)Nc2ccc3c(c2)OCCO3)c1C,"inconclusive: 16.4 µM [inhibitor, single point]"

# Entries listed so far containing two or more sulfur atoms:
row,Structure (SMILES),Potency
4,COCCSc1nnc(NC(=O)c2ccco2)s1,inactive
6,Cc1cc(C)nc(SCC(=O)N/N=C/c2cccs2)n1,"inconclusive: 0.562 µM [inhibitor, full curve, poor fit]"
